Data as given in PubChem BioAssay AID504764 (Drosophila RNAi Screening Center, 2011).
The screen tested about 22,000 reagents; shown is an unselected part of those with a known target gene and a result. In the full data, 403 (1.9%) were called active. 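Unnormalised raw counts per well; ratio z-scores behind the hit calls and whether each hit raises or lowers signal are not deposited.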 Names joined by + are all predicted targets of the reagent. Not given: the amount of reagent.

Assay: 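Knock-downs that raise or lower a Notch target reporter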 (primary screen)
Cells: Drosophila Kc167 cells
Reagents: long dsRNA against Drosophila genes
Time to read-out: about 5 days (4 days dsRNA, then 24 h after transfection)
Treatment: transfection of constitutively active membrane-tethered Notch lacking the extracellular domain, read 24 h later
Detection: 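Firefly luciferase from an E(spl)m3 reporter with active Notch, plus control-promoter and uninduced reporter wells for normalisation; unnormalised counts, duplicate wells a and b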
Direction: induced reporter light, run 1, well a and induced reporter light, run 1, well b: higher = more light from the Notch target reporter with active Notch; control promoter light, run 1, well a and control promoter light, run 1, well b: higher = more light from the viral control promoter (cell number, transfection, viability); uninduced reporter light, run 1, well a: higher = more light from the Notch target reporter without active Notch
Active means: 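Wells with low control signal or poorly matching duplicates excluded; duplicates averaged; per source plate, z beyond ±2 for induced/control log2 ratio or beyond ±1.8 for induced/uninduced marks a hit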
Calls: active = modifier hit (raised or lowered Notch signal); inactive = not a hit

target gene | amplicon | induced reporter light, run 1, well a | induced reporter light, run 1, well b | control promoter light, run 1, well a | control promoter light, run 1, well b | uninduced reporter light, run 1, well a | activity call
TyrRII | DRSC15150 | 1.62e5 | 1.32e5 | 1.87e5 | 1.68e5 | 12355 | inactive
Pus10 | DRSC00629 | 1.96e5 | 2.01e5 | 2.43e5 | 2.80e5 | 18810 | inactive
Vajk3 | DRSC01883 | 1.92e5 | 2.35e5 | 1.87e5 | 1.97e5 | 16905 | inactive
Arl4 | DRSC17156 | 1.07e5 | 1.27e5 | 1.58e5 | 2.04e5 | 7805 | inactive
CG12851 | DRSC04131 | 1.86e5 | 1.63e5 | 1.51e5 | 1.49e5 | 12915 | inactive
Setd3 | DRSC17840 | 1.48e5 | 1.62e5 | 2.74e5 | 2.85e5 | 10670 | inactive
Setd3 | DRSC18269 | 1.61e5 | 1.69e5 | 2.52e5 | 2.22e5 | 11705 | inactive
NetA | DRSC20261 | 67890 | 64830 | 1.08e5 | 76085 | 12738 | inactive
Tsp42Ei | DRSC06189 | 2.12e5 | 1.90e5 | 2.58e5 | 1.91e5 | 17535 | inactive
CG31848 | DRSC01309 | 1.48e5 | 1.20e5 | 1.21e5 | 1.10e5 | 8775 | inactive
caps | DRSC11333 | 1.52e5 | 1.34e5 | 2.17e5 | 1.70e5 | 6215 | inactive
CG6271 | DRSC16006 | 1.42e5 | 1.63e5 | 2.93e5 | 2.84e5 | 10992 | inactive
CG31031 (retired record) | DRSC13964 | 1.94e5 | 2.36e5 | 2.16e5 | 2.20e5 | 22125 | active
CG6527 | DRSC10659 | 3.09e5 | 2.23e5 | 3.32e5 | 3.32e5 | 8815 | active
CG31174 | DRSC13518 | 56280 | 47670 | 77985 | 48050 | 7575 | inactive
CG12056 | DRSC17796 | 1.84e5 | 1.73e5 | 2.02e5 | 2.18e5 | 13255 | inactive
e | DRSC16936 | 1.82e5 | 1.90e5 | 2.44e5 | 2.71e5 | 16610 | inactive
CG4866 | DRSC06899 | 81690 | 71285 | 1.07e5 | 91475 | 7745 | inactive

4 entries already listed, ordered by “induced reporter light, run 1, well a”, ascending.
target gene | amplicon | induced reporter light, run 1, well a | induced reporter light, run 1, well b | control promoter light, run 1, well a | control promoter light, run 1, well b | uninduced reporter light, run 1, well a | activity call
CG6271 | DRSC16006 | 1.42e5 | 1.63e5 | 2.93e5 | 2.84e5 | 10992 | inactive
CG31848 | DRSC01309 | 1.48e5 | 1.20e5 | 1.21e5 | 1.10e5 | 8775 | inactive
caps | DRSC11333 | 1.52e5 | 1.34e5 | 2.17e5 | 1.70e5 | 6215 | inactive
CG31031 (retired record) | DRSC13964 | 1.94e5 | 2.36e5 | 2.16e5 | 2.20e5 | 22125 | active

Next entries follow:
target gene | amplicon | induced reporter light, run 1, well a | induced reporter light, run 1, well b | control promoter light, run 1, well a | control promoter light, run 1, well b | uninduced reporter light, run 1, well a | activity call
P5cr | DRSC16782 | 1.81e5 | 1.34e5 | 2.01e5 | 2.07e5 | 14285 | inactive
Sbp2 | DRSC10766 | 1.27e5 | 1.13e5 | 76750 | 19740 | 12335 | active
unc-119 | DRSC18846 | 1.51e5 | 1.36e5 | 2.75e5 | 2.45e5 | 12485 | inactive
Act88F | DRSC14105 | 2.39e5 | 2.77e5 | 2.74e5 | 3.18e5 | 20478 | inactive
CG9014 | DRSC01979 | 1.53e5 | 1.48e5 | 1.72e5 | 1.71e5 | 12875 | inactive
pnut | DRSC07666 | 1.77e5 | 1.31e5 | 1.67e5 | 1.63e5 | 12300 | inactive
lmgA + lmgB | DRSC03566 | 1.54e5 | 1.83e5 | 1.01e5 | 1.25e5 | 16755 | inactive
Cdc7 | DRSC18428 | 1.89e5 | 2.06e5 | 3.38e5 | 3.76e5 | 13600 | inactive
Cdc7 | DRSC18429 | 1.38e5 | 1.26e5 | 2.18e5 | 1.75e5 | 10405 | inactive
sage | DRSC14580 | 1.66e5 | 1.67e5 | 2.94e5 | 3.18e5 | 13510 | inactive
CG34049 | DRSC00104 | 1.34e5 | 1.15e5 | 1.45e5 | 1.77e5 | 7115 | inactive
CG14332 | DRSC14811 | 1.80e5 | 1.94e5 | 1.83e5 | 1.83e5 | 13100 | inactive
CG8100 | DRSC10961 | 2.47e5 | 2.19e5 | 4.30e5 | 4.00e5 | 7950 | inactive
fs(1)N | DRSC18578 | 1.51e5 | 1.56e5 | 2.30e5 | 1.88e5 | 9900 | inactive
Sgs5 | DRSC16862 | 2.41e5 | 2.17e5 | 1.97e5 | 2.34e5 | 20065 | inactive
CG42534 | DRSC14722 | 17400 | 13840 | 16770 | 15990 | 4115 | inactive
CG42534 | DRSC14759 | 14755 | 12900 | 15585 | 15990 | 4225 | inactive
CG42534 | DRSC16072 | 1.30e5 | 1.17e5 | 1.75e5 | 1.65e5 | 10065 | inactive
ClC-b | DRSC07220 | 1.37e5 | 99055 | 1.31e5 | 1.43e5 | 8955 | inactive
gsb-n | DRSC04021 | 1.85e5 | 2.26e5 | 3.02e5 | 3.66e5 | 11725 | inactive
gsb-n | DRSC04693 | 2.66e5 | 2.38e5 | 2.09e5 | 1.94e5 | 16475 | inactive
CG2962 | DRSC18247 | 1.46e5 | 1.74e5 | 2.02e5 | 2.02e5 | 12015 | inactive
Rop | DRSC08693 | 1.54e5 | 1.33e5 | 1.17e5 | 38275 | 14260 | inactive
Acbp2 | DRSC11141 | 2.01e5 | 2.01e5 | 1.79e5 | 1.50e5 | 7440 | inactive
CG14615 | DRSC20627 | 80365 | 1.06e5 | 97630 | 1.11e5 | 9310 | inactive
CG16879 (retired record) | DRSC01918 | 2.05e5 | 1.73e5 | 1.60e5 | 1.54e5 | 16615 | inactive
bib | DRSC03496 | 2.58e5 | 2.10e5 | 1.96e5 | 1.86e5 | 18740 | inactive
peo | DRSC05995 | 1.49e5 | 1.64e5 | 1.59e5 | 1.51e5 | 15010 | inactive
wap | DRSC20626 | 1.22e5 | 1.10e5 | 99350 | 49330 | 10805 | inactive
CG34327 | DRSC19517 | 81790 | 75655 | 1.13e5 | 83845 | 10745 | inactive
Polr3H | DRSC10817 | 1.97e5 | 2.12e5 | 2.24e5 | 1.84e5 | 11760 | inactive
Mdh2 (retired record) | DRSC16361 | 2.05e5 | 1.91e5 | 2.32e5 | 2.09e5 | 12082 | inactive
